Results: US20080161289A1, “Fused Thiazole Derivatives Having Affinity for the Histamine H3 Receptor” (Glaxo Group Limited, priority 2005, published 2008)
Some entries share one result that the patent states for a list of compounds.

Chains of the proteins cited; added tags and fusions are not shown. Lines headed by an entry give the natural chain unless they say otherwise; changes in a name come on top.
UniProt Q9Y5N1: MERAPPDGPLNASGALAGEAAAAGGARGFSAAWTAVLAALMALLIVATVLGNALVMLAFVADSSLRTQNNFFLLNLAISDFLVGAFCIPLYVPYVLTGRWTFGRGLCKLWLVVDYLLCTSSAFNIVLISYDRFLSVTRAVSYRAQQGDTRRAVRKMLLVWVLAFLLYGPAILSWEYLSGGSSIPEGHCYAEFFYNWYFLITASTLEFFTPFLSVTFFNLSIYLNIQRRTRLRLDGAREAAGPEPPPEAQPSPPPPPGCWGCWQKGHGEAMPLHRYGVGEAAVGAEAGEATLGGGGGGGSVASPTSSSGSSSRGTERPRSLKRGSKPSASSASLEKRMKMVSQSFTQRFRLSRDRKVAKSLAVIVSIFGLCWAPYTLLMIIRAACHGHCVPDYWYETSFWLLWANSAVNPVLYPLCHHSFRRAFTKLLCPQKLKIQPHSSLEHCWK
UniProt P35367, whole entry: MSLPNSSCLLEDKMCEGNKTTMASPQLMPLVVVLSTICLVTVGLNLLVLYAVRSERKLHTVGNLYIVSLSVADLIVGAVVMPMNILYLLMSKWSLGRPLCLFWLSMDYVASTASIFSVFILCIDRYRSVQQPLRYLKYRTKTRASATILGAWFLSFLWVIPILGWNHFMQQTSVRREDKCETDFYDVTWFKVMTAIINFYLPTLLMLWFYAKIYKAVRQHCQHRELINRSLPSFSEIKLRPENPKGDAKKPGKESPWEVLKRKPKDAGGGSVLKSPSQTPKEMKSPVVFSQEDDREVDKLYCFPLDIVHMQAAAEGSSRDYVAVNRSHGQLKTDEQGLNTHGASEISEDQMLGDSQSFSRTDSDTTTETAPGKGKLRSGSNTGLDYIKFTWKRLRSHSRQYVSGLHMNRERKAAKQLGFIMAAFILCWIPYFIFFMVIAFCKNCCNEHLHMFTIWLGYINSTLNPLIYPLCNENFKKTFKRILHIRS

Key:
[1] = biological target: T1, histamine H3 receptors (Homo sapiens, UniProt Q9Y5N1); assay: Histamine H3 functional antagonist assay ([35S]-GTPγS SPA on membranes from H3 cells); type: biochemical; details: hydrochloride salts tested; H3 functional antagonist assay using membrane prepared from cultured H3 cells; averages of a number of experiments
T1 construct: expressed in transfected cells; host or cells: CHO K1 cells carrying pSwitch, transfected with pGeneH3, induced with mifepristone; clone 3H3; membrane preparation
From the text: A membrane preparation containing histamine H3 receptors may be prepared in accordance with the following procedures:
(i) Generation of Histamine H3 Cell Line
DNA encoding the human histamine H3 gene (Huvar, A. et al. (1999) Mol. Pharmacol. 55(6), 1101-1107) was cloned into a holding vector, pCDNA3.1 TOPO (InVitrogen) and its cDNA was isolated from this vector by restriction digestion of plasmid DNA with the enzymes BamHI and Not-1 and ligated into the inducible expression vector pGene (InVitrogen) digested with the same enzymes. The GeneSwitch™ system (a system where in transgene expression is switched off in the absence of an inducer and switched on in the presence of an inducer) was performed as described in U.S. Pat. Nos. 5,364,791; 5,874,534; and 5,935,934. Ligated DNA was transformed into competent DH5α E. coli host bacterial cells and plated onto Luria Broth (LB) agar containing Zeocin™ (an antibiotic which allows the selection of cells expressing the sh ble gene which is present on pGene and pSwitch) at 50 μg ml^−1. Colonies containing the re-ligated plasmid were identified by restriction analysis. DNA for transfection into mammalian cells was prepared from 250 ml cultures of the host bacterium containing the pGeneH3 plasmid and isolated using a DNA preparation kit (Qiagen Midi-Prep) as per manufacturers guidelines (Qiagen).
CHO K1 cells previously transfected with the pSwitch regulatory plasmid (InVitrogen) were seeded at 2×10e6 cells per T75 flask in Complete Medium, containing Hams F12 (GIBCOBRL, Life Technologies) medium supplemented with 10% v/v dialysed foetal bovine serum, L-glutamine, and hygromycin (100 μg ml^−1), 24 hours prior to use. Plasmid DNA was transfected into the cells using Lipofectamine plus according to the manufacturers guidelines (InVitrogen). 48 hours post transfection cells were placed into complete medium supplemented with 500 μg ml^−1 Zeocin™.
10-14 days post selection 10 nM Mifepristone (InVitrogen), was added to the culture medium to induce the expression of the receptor. 18 hours post induction cells were detached from the flask using ethylenediamine tetra-acetic acid (EDTA; 1:5000; InVitrogen), following several washes with phosphate buffered saline pH 7.4 and resuspended in Sorting Medium containing Minimum Essential Medium (MEM), without phenol red, and supplemented with Earles salts and 3% Foetal Clone II (Hyclone). Approximately 1×10e7 cells were examined for receptor expression by staining with a rabbit polyclonal antibody, 4a, raised against the N-terminal domain of the histamine H3 receptor, incubated on ice for 60 minutes, followed by two washes in sorting medium. Receptor bound antibody was detected by incubation of the cells for 60 minutes on ice with a goat anti rabbit antibody, conjugated with Alexa 488 fluorescence marker (Molecular Probes). Following two further washes with Sorting Medium, cells were filtered through a 50 μm Filcon™ (BD Biosciences) and then analysed on a FACS Vantage SE Flow Cytometer fitted with an Automatic Cell Deposition Unit. Control cells were non-induced cells treated in a similar manner. Positively stained cells were sorted as single cells into 96-well plates, containing Complete Medium containing 500 μg ml^−1 Zeocin™ and allowed to expand before reanalysis for receptor expression via antibody and ligand binding studies. One clone, 3H3, was selected for membrane preparation.
(ii) Membrane Preparation from Cultured Cells
All steps of the protocol are carried out at 4° C. and with pre-cooled reagents. The cell pellet is resuspended in 10 volumes of homogenisation buffer (50 mM N-2-hydroxyethylpiperazine-N′-2-ethanesulfonic acid (HEPES), 1 mM ethylenediamine tetra-acetic acid (EDTA), pH 7.4 with KOH, supplemented with 10e-6M leupeptin (acetyl-leucyl-leucyl-arginal; Sigma L2884), 25 μg/ml bacitracin (Sigma B0125), 1 mM phenylmethylsulfonyl fluoride (PMSF) and 2×10e-6M pepstain A (Sigma)). […]

[2] = biological target: T2, human H1 receptor (Homo sapiens, UniProt P35367); assay: Histamine H1 functional antagonist assay (FLIPR, histamine induced increase in fluorescence); type: cell-based; details: hydrochloride salts tested, Cheng-Prusoff equation, averages of a number of experiments
T2 construct: expressed in transfected cells

| SMILES | functional pKi (fpKi) [1] | functional pKi (fpKi) [2] |
| --- | --- | --- |
| Cc1ccc(N2CCC(c3nc4c(s3)CCN(C3CCC3)CC4)C2)cn1 (racemic) [Example E38, (±)-6-Cyclobutyl-2-[1-(6-methyl-3-pyridinyl)-3-pyrrolidinyl]-5,6,7,8-tetrahydro-4H-[1,3]thiazolo[4,5-d]azepine] | > 7.5 | < 5.6 |
| Cc1cccc(N2CCC(c3nc4c(s3)CCN(C3CCC3)CC4)C2)n1 (racemic) [Example E114, (±)-6-Cyclobutyl-2-[1-(6-methyl-2-pyridinyl)-3-pyrrolidinyl]-5,6,7,8-tetrahydro-4H-[1,3]thiazolo[4,5-d]azepine] | > 7.5 | < 5.6 |
| N#Cc1ccc(N2CCC(c3nc4c(s3)CCN(C3CCC3)CC4)C2)cn1 (single isomer, unassigned; (-)) [Example E36, (−)-5-[3-(6-Cyclobutyl-5,6,7,8-tetrahydro-4H-[1,3]thiazolo[4,5-d]azepin-2-yl)-1-pyrrolidinyl]-2-pyridinecarbonitrile] | > 7.5 | < 5.6 |
| Brc1ccc(-c2nc3c(s2)CCN(C2CCC2)CC3)cc1 [Example E2, 2-(4-Bromophenyl)-6-cyclobutyl-5,6,7,8-tetrahydro-4H-[1,3]thiazolo[4,5-d]azepine] | > 7.5 | < 5.6 |
| O=C1CCCN1c1ccc(-c2nc3c(s2)CCN(C2CCC2)CC3)cc1 [Example E3, 1-[4-(6-cyclobutyl-5,6,7,8-tetrahydro-4H-[1,3]thiazolo[4,5-d]azepin-2-yl)phenyl]-2-pyrrolidinone] | > 7.5 | < 5.6 |
| FC(F)(F)c1ccc(-c2nc3c(s2)CCN(C2CCC2)CC3)cn1 [Example E4, 6-Cyclobutyl-2-[6-(trifluoromethyl)-3-pyridinyl]-5,6,7,8-tetrahydro-4H-[1,3]thiazolo[4,5-d]azepine] | > 7.5 | < 5.6 |
| N#Cc1ccc(C(=O)N2CCC(c3nc4c(s3)CCN(C3CCC3)CC4)CC2)cn1 [Example E9, 5-{[4-(6-Cyclobutyl-5,6,7,8-tetrahydro-4H-[1,3]thiazolo[4,5-d]azepin-2-yl)-1-piperidinyl]carbonyl}-2-pyridinecarbonitrile] | > 7.5 | < 5.6 |
| Cc1cccc(C(=O)N2CCC(c3nc4c(s3)CCN(C3CCC3)CC4)CC2)n1 [Example E11, 6-Cyclobutyl-2-{1-[(6-methyl-2-pyridinyl)carbonyl]-4-piperidinyl}-5,6,7,8-tetrahydro-4H-[1,3]thiazolo[4,5-d]azepine] | > 7.5 | < 5.6 |
| Cc1cnc(C(=O)N2CCC(c3nc4c(s3)CCN(C3CCC3)CC4)CC2)cn1 [Example E12, 6-Cyclobutyl-2-{1-[(5-methyl-2-pyrazinyl)carbonyl]-4-piperidinyl}-5,6,7,8-tetrahydro-4H-[1,3]thiazolo[4,5-d]azepine] | > 7.5 | < 5.6 |
| Cc1cncc(C(=O)N2CCC(c3nc4c(s3)CCN(C3CCC3)CC4)CC2)c1 [Example E13, 6-Cyclobutyl-2-{1-[(5-methyl-3-pyridinyl)carbonyl]-4-piperidinyl}-5,6,7,8-tetrahydro-4H-[1,3]thiazolo[4,5-d]azepine] | > 7.5 | < 5.6 |
| Cc1ccc(C(=O)N2CCC(c3nc4c(s3)CCN(C3CCC3)CC4)CC2)cc1 [Example E14, 6-Cyclobutyl-2-{1-[(4-methylphenyl)carbonyl]-4-piperidinyl}-5,6,7,8-tetrahydro-4H-[1,3]thiazolo[4,5-d]azepine] | > 7.5 | < 5.6 |
| Cc1cc(C(=O)N2CCC(c3nc4c(s3)CCN(C3CCC3)CC4)CC2)no1 [Example E15, 6-Cyclobutyl-2-{1-[(5-methyl-3-isoxazolyl)carbonyl]-4-piperidinyl}-5,6,7,8-tetrahydro-4H-[1,3]thiazolo[4,5-d]azepine] | > 7.5 | < 5.6 |
| O=C(c1csnn1)N1CCC(c2nc3c(s2)CCN(C2CCC2)CC3)CC1 [Example E16, 6-Cyclobutyl-2-[1-(1,2,3-thiadiazol-4-ylcarbonyl)-4-piperidinyl]-5,6,7,8-tetrahydro-4H-[1,3]thiazolo[4,5-d]azepine] | > 7.5 | < 5.6 |
| Cn1ccc(C(=O)N2CCC(c3nc4c(s3)CCN(C3CCC3)CC4)CC2)n1 [Example E17, 6-Cyclobutyl-2-{1-[(1-methyl-1H-pyrazol-3-yl)carbonyl]-4-piperidinyl}-5,6,7,8-tetrahydro-4H-[1,3]thiazolo[4,5-d]azepine] | > 7.5 | < 5.6 |
| Cc1cc(C(=O)N2CCC(c3nc4c(s3)CCN(C3CCC3)CC4)CC2)on1 [Example E18, 6-Cyclobutyl-2-{1-[(3-methyl-5-isoxazolyl)carbonyl]-4-piperidinyl}-5,6,7,8-tetrahydro-4H-[1,3]thiazolo[4,5-d]azepine] | > 7.5 | < 5.6 |
| Cc1ccc(N2CCC(c3nc4c(s3)CCN(C3CCC3)CC4)CC2)cn1 [Example E19, 6-Cyclobutyl-2-[1-(6-methyl-3-pyridinyl)-4-piperidinyl]-5,6,7,8-tetrahydro-4H-[1,3]thiazolo[4,5-d]azepine] | > 7.5 | < 5.6 |
| Cc1ncccc1C(=O)N1CCC(c2nc3c(s2)CCN(C2CCC2)CC3)CC1 [Example E25, 6-Cyclobutyl-2-{1-[(2-methyl-3-pyridinyl)carbonyl]-4-piperidinyl}-5,6,7,8-tetrahydro-4H-[1,3]thiazolo[4,5-d]azepine] | > 7.5 | < 5.6 |
| CN1CCN(c2ccc(-c3nc4c(s3)CCN(C3CCC3)CC4)cc2)C1=O [Example E26, 1-[4-(6-Cyclobutyl-5,6,7,8-tetrahydro-4H-[1,3]thiazolo[4,5-d]azepin-2-yl)phenyl]-3-methyl-2-imidazolidinone] | > 7.5 | < 5.6 |
| O=C1NCCN1c1ccc(-c2nc3c(s2)CCN(C2CCC2)CC3)cc1 [Example E27, 1-[4-(6-Cyclobutyl-5,6,7,8-tetrahydro-4H-[1,3]thiazolo[4,5-d]azepin-2-yl)phenyl]-2-imidazolidinone] | > 7.5 | < 5.6 |
| CN1CCN(c2ccc(-c3nc4c(s3)CCN(C3CCCC3)CC4)cc2)C1=O [Example E28, 1-[4-(6-Cyclopentyl-5,6,7,8-tetrahydro-4H-[1,3]thiazolo[4,5-d]azepin-2-yl)phenyl]-3-methyl-2-imidazolidinone] | > 7.5 | < 5.6 |
| CC(C)N1CCc2nc(-c3ccc(N4CCN(C)C4=O)cc3)sc2CC1 [Example E29, 1-Methyl-3-{4-[6-(1-methylethyl)-5,6,7,8-tetrahydro-4H-[1,3]thiazolo[4,5-d]azepin-2-yl]phenyl}-2-imidazolidinone] | > 7.5 | < 5.6 |
| CN1CCN(c2ccc(-c3nc4c(s3)CCN(C3CCCCC3)CC4)cc2)C1=O [Example E30, 1-[4-(6-Cyclohexyl-5,6,7,8-tetrahydro-4H-[1,3]thiazolo[4,5-d]azepin-2-yl)phenyl]-3-methyl-2-imidazolidinone] | > 7.5 | < 5.6 |
